For at least one compound, name, drawing or mass did not settle the structure.
Key:
[1] = tested on: human melanoma cell line UACC-62; experiment: Cell proliferation (CelltiterGlo, ray design) in UACC-62; type: cell-based; conditions: example 1; single agent; 96 hours; 4-parameter logistic model
Procedure: The human melanoma UACC-62 cell line was purchased at NCI (Batch 0503000). The UACC-62 cells were cultured in RPMI1640 medium supplemented with 10% FBS and 2 mM L-Glutamine.
They were diluted in cascade, in DMSO and then diluted 50-fold in culture medium containing 10% serum before being added onto cells with a 20-fold dilution factor. The final concentrations tested were defined by Ray design described in Table 1. The DMSO concentration was 0.1% in controls and in all treated wells.
(§1) UACC-62 cells were plated at 2500 cells/well in 96-well plates in appropriate culture medium and incubated 6 hours at 37° C., 5% CO2. […] Cell growth was evaluated by measuring intracellular ATP using CelltiterGlo® reagent (Promega) according to the manufacturer's protocol. Briefly, Cell Titer Glo was added to each plate, incubated for 1 hour then luminescent signal was read on the MicroBeta Luminescent plate reader. All plates were run in duplicate. All assays were run at least in duplicate.
(§2) Inhibition of cell growth was estimated after treatment with compound or combination of compounds for four days and comparing the signal to cells treated with vehicle (DMSO).
Growth inhibition percentage (GI %) was calculated according to the following equation: GI %=100*(1−((X−BG)/(TC−BG)) […]

[2] = tested on: human melanoma cell line WM-266-4; experiment: Cell proliferation (CelltiterGlo, ray design) in WM-266-4; type: cell-based; conditions: example 3; single agent; 96 hours; 4-parameter logistic model
Procedure: as §1, §2
Growth inhibition percentage (GI %) was calculated according to the following equation: GI %=100*(1−((X−BG)/(TC−BG))
A global non linear mixed model using NLMIXED procedure of SAS V9.2 was applied to fit simultaneously the concentration-responses curves for each ray. The combination index
of each ray i and its 95% confidence interval was then estimated using the following equation: […]
where IC40A and IC40B are the concentrations of compound A and compound B necessary to obtain 40% of inhibition for each compound alone and CA and CB are the concentrations of compound A and compound B in the mixture necessary to obtain 40% of inhibition. […]

Cn1cnc2c(F)c(Nc3ccc(Br)cc3Cl)c(C(=O)NOCCO)cc21 [Compound (2a), 1H-Benzimidazole-6-carboxamide, 5-[(4-bromo-2-chlorophenyl)amino]-4-fluoro-N-(2-hydroxyethoxy)-1-methyl]
Absolute IC40 [1]: 27.4 [22.0; 32.8] nM
Absolute IC40 [2]: 33.5 [29.5; 37.4] nM
